Experimental data as given in US20160046678A1 (ZYNGENIA, published 2016).
These are yes or no findings as the source states them, for the method shown. Some entries that bind do so weakly or less than the wild type.

Protein sequences, listed by entry. Tags and fused reporters are not part of them. Residues count along the entry.
UniProt P05231, residues 30-212: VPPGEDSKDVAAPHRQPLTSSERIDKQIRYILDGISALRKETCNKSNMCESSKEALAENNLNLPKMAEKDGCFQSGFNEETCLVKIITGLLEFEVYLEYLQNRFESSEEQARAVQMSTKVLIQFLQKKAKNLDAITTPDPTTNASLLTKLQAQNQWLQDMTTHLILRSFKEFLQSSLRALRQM

B1: ILB844 (peptide)
peptide: FNEDCMWDPLLMDCAYSPGQGSATGGSGSTASAAGNCSCFIKPVGPDCWAVS
B2: ILB877 (peptide)
peptide: FNEDCMWDPLLMDCAYSPGQGSATGGSAAGGSYSFRCDVEPHQPGCFDLIQG
B3: ILB840 (peptide)
peptide: FNEDCMWDPLLMDCAYSPGQGSATGGSGSTASAAGGSGEDQCKLFGSGLDTCIPYV
B4: ILB848 (peptide)
peptide: FNEDCMWDPLLMDCAYSPGQGSATGGSAAGGSETLPCQYWGQSWCSQSAQG
B5: ILB861 (peptide)
peptide: FNEDCMWDPLLMDCAYSPGQGSATGGSAAGGSYQPGCAQWWDMERGCFITQ

These binders were tested against IL6 (UniProt P05231) (assay: MRD identification, Example 48).

Row | binding | Binder
1 | binds | FNEDCMWDPLLMDCAYSPAGGSIRGLSCWPQDCGLEEL [ILB870]
2 | binds | FNEDCMWDPLLMDCAYSPGQGSAAGGGSSYWEHGWPWQ [ILB862]
3 | binds | FNEDCMWDPLLMDCAYSPGQGSAAGGGSQPWRHNMQKI [ILB852]
4 | binds | FNEDCMWDPLLMDCAYSPAGGGSQPWRHNMQKI [ILB869]
5 | binds | FNEDCMWDPLLMDCAYSPAGGSETFDCNTPWEHECYGRF [ILB847]
6 | binds | FNEDCMWDPLLMDCAYSPGQGSAAGGGSWPSPPWKQMV [ILB863]
7 | binds | FNEDCMWDPLLMDCAYSPGQGSAAGGGSPCLSWYVAPMF [ILB837]
8 | binds | B1
9 | binds | FNEDCMWDPLLMDCAYSPGQGSAAGGSHESCAVHYQHGCPYASQG [ILB843]
10 | binds | FNEDCMWDPLLMDCAYSPGQGSATGGSAAGGGSHHKNNGTIYQ [ILB853]
11 | binds | B2
12 | binds | FNEDCMWDPLLMDCAYSPGQGSAAGGGSPCVKAPEFDWCT [ILB842]
13 | binds | FNEDCMWDPLLMDCAYSPGQGSATGGSGSTASAAGGGSPCTPWTEWQQCP [ILB849]
14 | binds | FNEDCMWDPLLMDCAYSPGQGSATGGSGSTASAAGGGSRVQIIVPEKW [ILB874]
15 | binds | B3
16 | binds | FNEDCMWDPLLMDCAYSPGQGSAAGGGSREFTQNWSIY [ILB855]
17 | binds | FNEDCMWDPLLMDCAYSPGQGSATGGSGSTASAAGGGSKCSIDVQQCM [ILB851]
18 | binds | FNEDCMWDPLLMDCAYSPGQGSAAGGSLEASCAQSDQCFRQSQG [ILB879]
19 | binds | FNEDCMWDPLLMDCAYSPGQGSAAGGGSHYLWQEKTYK [ILB872]
20 | binds | FNEDCMWDPLLMDCAYSPGQGSAAGGGSLCERPLHTPWA [ILB867]

Row | binding | Binder
21 | binds | FNEDCMWDPLLMDCAYSPGQGSATGGSGSTASAAGGGSDCGANHEHCS [ILB873]
22 | binds | FNEDCMWDPLLMDCAYSPGQGSAAGGGSQWQWKIHPAE [ILB866]
23 | binds | FNEDCMWDPLLMDCAYSPGQGSAAGGGSPAERMKMHMF [ILB854]
24 | binds | FNEDCMWDPLLMDCAYSPGQGSATGGSAAGGGSKCWSFSGNRPCP [ILB858]
25 | binds | FNEDCMWDPLLMDCAYSPGQGSAAGGGSEHHWEHPTNF [ILB875]
26 | binds | FNEDCMWDPLLMDCAYSPGQGSATGGSGSTASAAGGGSAYTMWQYHKF [ILB856]
27 | binds | FNEDCMWDPLLMDCAYSPAGGGSDEFQFGSEMM [ILB864]
28 | binds | FNEDCMWDPLLMDCAYSPGQGSAAGGSHSMLCQPWHLCPPAQQG [ILB850]
29 | binds | B4
30 | binds | FNEDCMWDPLLMDCAYSPGQGSAAGGGSPDWITWQPAW [ILB860]
31 | binds | FNEDCMWDPLLMDCAYSPGQGSAAGGSADDCCVSHLPFIGYCGFVRQG [ILB838]
32 | binds | FNEDCMWDPLLMDCAYSPGQGSAAGGGSYMGQIPAHNI [ILB857]
33 | binds | FNEDCMWDPLLMDCAYSPGQGSAAGGGSLMYMWEPRTQ [ILB878]
34 | binds | B5
35 | binds | FNEDCMWDPLLMDCAYSPGQGSAAGGGSLNFGSYSTPH [ILB871]
36 | binds | FNEDCMWDPLLMDCAYSPGQGSATGGSAAGGSSAHDCTEESWCWMEVQG [ILB876]
37 | binds | FNEDCMWDPLLMDCAYSPGQGSAAGGGSEEQPTEWHVY [ILB846]
38 | binds | FNEDCMWDPLLMDCAYSPGQGSATGGSAAGGGSICMEYPIIRPCT [ILB836]
39 | binds | FNEDCMWDPLLMDCAYSPGQGSAAGGGSINALGVAVQH [ILB865]
40 | binds | FNEDCMWDPLLMDCAYSPGQGSAAGGGSPWAKNRHEAV [ILB868]
